Our source for the AC50 values is PubChem BioAssay AID662 (National Center for Advancing Translational Sciences (NCATS), 2007).

The other results are listed elsewhere or left out. Further columns of the screen follow, without active or inactive calls. The list favours compounds with an active or inconclusive main result. The note in brackets gives the kind of curve behind each potency; many fits are weak.

The nature of this experiment: Cell signaling CRE-BLA (Fsk stim). The conditions noted are these: CHO CRE-bla reporter (cAMP response element driving beta-lactamase), forskolin EC10, beta-lactamase ratio; measured here: 460 nm blue channel. Summed up: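 Forskolin analogue NKH 477 at EC10 stimulated CRE-driven beta-lactamase in CHO cells alongside compound dilution series. Beta-lactamase was measured with CCF4, excitation 405 nm, emission ratio 460/530 nm.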
Take `CC(NC(=O)c1ccccc1Cl)C(=O)O` (stereo not drawn): the AC50 is 0.631 µM [falling, full curve, poor fit].
Turning to `Cc1cc(C)n2c(Br)c(CSc3nc4ccccc4o3)nc2n1`, the AC50 was 3.98 µM [rising, partial curve].
In the case of `C/C=C/CSc1nc2c(c(=O)[nH]c(=O)n2C)n1C(C)C` it was 5.01 µM [rising, partial curve]; in that of `COc1ccc2c(c1)C(C)=CC(C)(C)N2C(=O)C(C)N1C(=O)c2ccccc2C1=O` (stereo not drawn), 10 µM [rising, partial curve].
Turning to `Cc1cccc(S(=O)(=O)c2c(N)n(/N=C/c3cccnc3)c3nc4ccccc4nc23)c1`, the half-maximal activity concentration (AC50) is 5.01 µM [rising, partial curve].
Turning to `CCOc1ccc(N(CC(=O)Nc2cccc(Cl)c2)S(=O)(=O)c2c(C)noc2C)cc1`, the AC50 was 12.6 µM [falling, single point].
In the case of `CC(=O)Nc1nc(-c2ccc(Cl)cc2)nc(C)c1C(C)=O` it was 2 µM [rising, single point]; in that of `COc1ccc2cc3cc(C(=O)NCC4CCCO4)oc3nc2c1` (stereo not drawn), 7.94 µM [rising, partial curve, poor fit]; in that of `COCCn1c(=O)c(-c2ccc(OC)cc2)nc2cnc(N3CCN(C)CC3)nc21`, 10 µM [rising, partial curve].
As for `Cc1cccn2c(=O)c3cc(C(=O)NCC4CCCO4)c(=N)n(Cc4cccnc4)c3nc12` (stereo not drawn), the figure is 2.51 µM [rising, full curve].
Regarding `CCOC(=O)C1=C(C)N(C2CCCCC2)C(=O)C1`, the AC50 was 1 µM [falling, partial curve, poor fit].
In the case of `O=C(Oc1ccc2ccccc2c1Cl)N1CCCC1`, the AC50 is 20 µM [rising, single point].
As for `Cc1cc(C)n2c(SCC(=O)N(C)C3CCS(=O)(=O)C3)nnc2n1` (stereo not drawn), the figure is 5.01 µM [falling, single point]; as for `CCOC(=O)c1c(O)c2c(n(Cc3ccco3)c1=O)CCCC2`, 3.16 µM [falling, full curve].
`Cc1ccc2c(C(=O)CN3CCCC3)c(C)[nH]c2c1`: the AC50 was 2 µM [falling, full curve, poor fit].
For `CCOc1ccc(-c2nc(S(=O)(=O)c3ccccc3)c(NCc3cccnc3)o2)cc1`, the AC50 is 25.1 µM [rising, single point].
As to `Cc1cc2c(=O)n(NC(N)=O)c(C)nc2s1`, the AC50 was 0.501 µM [falling, partial curve].
For `COc1ccc(N(Cc2cc3cc(OC)ccc3[nH]c2=O)C(=O)C2CCCO2)cc1` (stereo not drawn), the AC50 is 2 µM [rising, full curve, poor fit].
On to `COc1cc(C(=O)N2CCN(c3ccc(C)cc3C)CC2)cc(OC)c1OC`, for which the AC50 was 10 µM [rising, partial curve].
Consider `Cc1cccc(CNc2cc(-c3ccccc3Cl)ncn2)c1`, for which the AC50 is 6.31 µM [rising, partial curve].
Consider `COc1ccc(CCN2CC(C#N)=C3c4cc(OC)c(OC)cc4CCN3C2)cc1OC`, for which the half-maximal activity concentration (AC50) is 1.26 µM [rising, partial curve].
`CCOC(=O)c1c(C)[nH]c(C(=O)CN2C(=O)NC(CC)(c3ccccc3)C2=O)c1C` (stereo not drawn): the AC50 is 20 µM [rising, single point].
As for `CN1CCN(c2ncc3nc(-c4cn(C)c5ccccc45)c(=O)n(-c4ccccc4)c3n2)CC1`, the AC50 is 12.6 µM [rising, partial curve].
Take `CCOCCn1c(CN2CCC(C)CC2)nc2c1c(=O)n(C)c(=O)n2C`: the AC50 was 15.8 µM [rising, single point].
As for `COc1ccccc1N1CCN(C(=O)c2sc3nc(-c4ccc(F)cc4)cn3c2C)CC1`, the figure is 6.31 µM [falling, partial curve, poor fit]; as for `CN(C(=O)CN1CCC(NC(=O)C2CCCCC2)CC1)C1CCCCC1`, 3.16 µM [falling, partial curve].
In the case of `CCc1ccc2[nH]cc(C(=O)OCCOC)c(=O)c2c1`, the half-maximal activity concentration (AC50) was 0.00316 µM [falling, full curve, poor fit].
In the case of `Nc1nnc(COc2ccc(Br)cc2Br)s1`, the AC50 is 0.0158 µM [falling, full curve].
For `Cc1csc2nc3ccccc3c(=O)n12`, the AC50 is 10 µM [rising, partial curve].
For `COCCN1C=C(C(=O)OC)C(c2ccc(OC)c(OC)c2)C(C(=O)OC)=C1`, the AC50 was 10 µM [rising, single point].
On to `O=C(NCc1ccc2c(c1)OCO2)C1CC(=O)N(C2CCCC2)C1` (stereo not drawn), for which the AC50 is 1.26 µM [falling, partial curve].
As to `CC(CCc1ccccc1)NC(=O)C1CCN(S(=O)(=O)c2cnc[nH]2)CC1` (stereo not drawn), the AC50 was 0.00316 µM [falling, full curve, poor fit].
As to `Cn1cc(-c2nc3cnc(N4CCNCC4)nc3n(C3CC3)c2=O)c2ccccc21`, the AC50 was 10 µM [rising, partial curve].
In the case of `O=C(NC1CCN(C(=O)NC2CCCCC2)CC1)c1ccco1` it was 0.398 µM [falling, partial curve].
As to `CCOC(=O)c1cccc(NC(=O)C2CCCN2S(=O)(=O)c2cccc3cccnc23)c1` (stereo not drawn), the AC50 was 12.6 µM [rising, partial curve].
In the case of `Nc1nc2c(s1)CCc1c-2cnn1-c1ccccc1` it was 25.1 µM [falling, single point]; in that of `COc1cc2nc(NC(=O)c3ccccc3)[nH]c(=O)c2cc1OC`, 25.1 µM [rising, single point]; in that of `c1ccc(Oc2nc(Oc3ccccc3)nc(N3CCOCC3)n2)cc1`, 7.94 µM [rising, partial curve].
In the case of `CCc1c(C(C)O)oc2ccc3c(C)cc(=O)oc3c12` (stereo not drawn) it was 1.58 µM [rising, partial curve]; in that of `Clc1ccc(OCc2nnc3n2N=C(c2ccc4c(c2)OCCO4)CS3)c(Cl)c1`, 1 µM [rising, full curve]; in that of `CC1Oc2ccccc2N(Cc2ccccc2Cl)C1=O` (stereo not drawn), 15.8 µM [rising, partial curve].
As for `CCC(=O)Nc1c(C)cc(C)cc1Cl`, the figure is 0.01 µM [falling, full curve, poor fit]; as for `COc1ccc(-c2cc(C(F)(F)F)nc(N3CCN(C)CC3)n2)cc1`, 10 µM [rising, single point].
